In PMC10322692 one finds binding data, which are given here for 1 molecule.

Sequences of proteins named here, by UniProt entry; tags and fusion partners are left off. Residues count along the entry.
UniProt P24394, residues 26-825: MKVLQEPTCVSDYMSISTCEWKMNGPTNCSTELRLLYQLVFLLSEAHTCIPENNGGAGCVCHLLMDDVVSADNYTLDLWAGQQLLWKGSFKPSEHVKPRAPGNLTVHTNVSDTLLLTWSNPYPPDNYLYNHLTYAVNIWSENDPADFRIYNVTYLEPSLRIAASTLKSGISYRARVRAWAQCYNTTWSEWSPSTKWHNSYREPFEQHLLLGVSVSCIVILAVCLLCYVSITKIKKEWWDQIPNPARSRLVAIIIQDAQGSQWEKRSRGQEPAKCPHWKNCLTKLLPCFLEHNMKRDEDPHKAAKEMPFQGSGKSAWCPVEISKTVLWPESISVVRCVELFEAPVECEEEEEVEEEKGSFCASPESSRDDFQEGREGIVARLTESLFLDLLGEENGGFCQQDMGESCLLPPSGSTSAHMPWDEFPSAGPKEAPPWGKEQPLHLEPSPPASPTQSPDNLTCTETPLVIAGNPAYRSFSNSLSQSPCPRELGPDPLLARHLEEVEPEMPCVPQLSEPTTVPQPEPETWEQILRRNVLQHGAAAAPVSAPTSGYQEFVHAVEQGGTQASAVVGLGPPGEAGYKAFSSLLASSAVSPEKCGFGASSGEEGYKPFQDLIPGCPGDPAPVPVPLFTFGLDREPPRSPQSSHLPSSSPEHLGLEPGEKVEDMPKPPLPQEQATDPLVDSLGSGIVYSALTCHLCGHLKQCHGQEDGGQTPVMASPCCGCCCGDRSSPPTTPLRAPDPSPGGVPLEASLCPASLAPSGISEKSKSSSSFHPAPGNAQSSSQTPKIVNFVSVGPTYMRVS

No constants are given. Whether binding was seen depends on the method and setting. Binding seen in cells or lysates may run through a third protein. Some binding calls cover weakened binding; strength is not graded here.

The target of the test is IL-4Rα (UniProt P24394). The experiment in a line: co-IP; co-immunoprecipitation from ZHX2-deficient podocytes; which protein was precipitated not given; method as previously described and in the Supplemental Methods.

B1: ZHX1 (protein, UniProt Q9UKY1 1-873)
chain: MASRRKSTTPCMVLASEQDPDLELISDLDEGPPVLTPVENTRAESISSDEEVHESVDSDNQQNKKVEGGYECKYCTFQTPDLNMFTFHVDSEHPNVVLNSSYVCVECNFLTKRYDALSEHNLKYHPGEENFKLTMVKRNNQTIFEQTINDLTFDGSFVKEENAEQAESTEVSSSGISISKTPIMKMMKNKVENKRIAVHHNSVEDVPEEKENEIKPDREEIVENPSSSASESNTSTSIVNRIHPSTASTVVTPAAVLPGLAQVITAVSAQQNSNLIPKVLIPVNSIPTYNAALDNNPLLLNTYNKFPYPTMSEITVLSAQAKYTEEQIKIWFSAQRLKHGVSWTPEEVEEARRKQFNGTVHTVPQTITVIPTHISTGSNGLPSILQTCQIVGQPGLVLTQVAGTNTLPVTAPIALTVAGVPSQNNIQKSQVPAAQPTAETKPATAAVPTSQSVKHETALVNPDSFGIRAKKTKEQLAELKVSYLKNQFPHDSEIIRLMKITGLTKGEIKKWFSDTRYNQRNSKSNQCLHLNNDSSTTIIIDSSDETTESPTVGTAQPKQSWNPFPDFTPQKFKEKTAEQLRVLQASFLNSSVLTDEELNRLRAQTKLTRREIDAWFTEKKKSKALKEEKMEIDESNAGSSKEEAGETSPADESGAPKSGSTGKICKKTPEQLHMLKSAFVRTQWPSPEEYDKLAKESGLARTDIVSWFGDTRYAWKNGNLKWYYYYQSANSSSMNGLSSLRKRGRGRPKGRGRGRPRGRPRGSKRINNWDRGPSLIKFKTGTAILKDYYLKHKFLNEQDLDELVNKSHMGYEQVREWFAERQRRSELGIELFEENEEEDEVIDDQEEDEEETDDSDTWEPPRHVKRKLSKSDD
On to B1, for which the binding result is “binds”.
